Data on two molecules can be found in patent US20120009123A1, “Albumin binding peptide-mediated disease targeting” (ABRAXIS BIOSCIENCE, LLC, priority 2008, published 2012).

By UniProt entry, the sequences of proteins in these tests, tags left out. Residues count along the entry.
UniProt P02768, residues 25-609: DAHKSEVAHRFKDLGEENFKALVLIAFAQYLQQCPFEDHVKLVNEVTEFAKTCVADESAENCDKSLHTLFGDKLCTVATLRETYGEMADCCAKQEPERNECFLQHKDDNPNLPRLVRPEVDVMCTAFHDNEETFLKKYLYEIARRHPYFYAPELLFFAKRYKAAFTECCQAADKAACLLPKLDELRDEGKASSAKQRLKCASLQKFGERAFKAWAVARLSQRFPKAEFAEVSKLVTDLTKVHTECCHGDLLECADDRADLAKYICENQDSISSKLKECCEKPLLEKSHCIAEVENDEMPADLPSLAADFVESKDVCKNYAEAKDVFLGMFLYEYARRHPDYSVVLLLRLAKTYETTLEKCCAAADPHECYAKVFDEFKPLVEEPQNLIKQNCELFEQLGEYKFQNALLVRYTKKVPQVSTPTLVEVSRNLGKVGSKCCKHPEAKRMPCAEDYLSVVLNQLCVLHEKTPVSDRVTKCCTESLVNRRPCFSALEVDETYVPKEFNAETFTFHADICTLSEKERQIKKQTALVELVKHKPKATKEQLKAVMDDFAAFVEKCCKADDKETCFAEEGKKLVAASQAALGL

Results are given in words; binding and its absence hold for the method and conditions named. Some binding calls cover weakened binding; strength is not graded here.

Experiment [1] concerns the target human serum albumin spiked with Alexa fluor 488 conjugated bovine serum albumin (human) (UniProt P02768). Nature of the experiment: SPARC immobilised on PVDF plate, HSA spiked with Alexa 488-BSA, fluorescence.
Experiment [2] shares this target. Nature of the experiment: Q3 SPARC immobilised on PVDF plate, HSA spiked with Alexa 488-BSA, fluorescence.

B1: Full length, wild-type SPARC (protein, human, UniProt P09486 18-303, looked up)
chain: APQQEALPDETEVVEETVAEVTEVSVGANPVQVEVGEFDDGAEETEEEVVAENPCQNHHCKHGKVCELDENNTPMCVCQDPTSCPAPIGEFEKVCSNDNKTFDSSCHFFATKCTLEGTKKGHKLHLDYIGPCKYIPPCLDSELTEFPLRMRDWLKNVLVTLYERDEDNNLLTEKQKLRVKKIHENEKRLEAGDHPVELLARDFEKNYNMYIFPVHWQFGQLDQHPIDGYLSHTELAPLRAPLIPMEHCTTRFFETCDLDNDKYIALDEWAGCFGIKQKDIDKDLVI
With B1, the binding entry in experiment [1] was “binds”.

B2: SPARC deletion mutant in which the glutamine at residue 3 is deleted (protein, UniProt P09486 18-303, looked up)
chain: APQEALPDETEVVEETVAEVTEVSVGANPVQVEVGEFDDGAEETEEEVVAENPCQNHHCKHGKVCELDENNTPMCVCQDPTSCPAPIGEFEKVCSNDNKTFDSSCHFFATKCTLEGTKKGHKLHLDYIGPCKYIPPCLDSELTEFPLRMRDWLKNVLVTLYERDEDNNLLTEKQKLRVKKIHENEKRLEAGDHPVELLARDFEKNYNMYIFPVHWQFGQLDQHPIDGYLSHTELAPLRAPLIPMEHCTTRFFETCDLDNDKYIALDEWAGCFGIKQKDIDKDLVI
For B2, in experiment [2], the binding result is “binds”.
